In assay [1] the target is T1, TOPLESS fused to the GAL4 DNA binding domain (pGBKT7-TPL) (Arabidopsis thaliana) (UniProt Q94AI7).
T1 sequence: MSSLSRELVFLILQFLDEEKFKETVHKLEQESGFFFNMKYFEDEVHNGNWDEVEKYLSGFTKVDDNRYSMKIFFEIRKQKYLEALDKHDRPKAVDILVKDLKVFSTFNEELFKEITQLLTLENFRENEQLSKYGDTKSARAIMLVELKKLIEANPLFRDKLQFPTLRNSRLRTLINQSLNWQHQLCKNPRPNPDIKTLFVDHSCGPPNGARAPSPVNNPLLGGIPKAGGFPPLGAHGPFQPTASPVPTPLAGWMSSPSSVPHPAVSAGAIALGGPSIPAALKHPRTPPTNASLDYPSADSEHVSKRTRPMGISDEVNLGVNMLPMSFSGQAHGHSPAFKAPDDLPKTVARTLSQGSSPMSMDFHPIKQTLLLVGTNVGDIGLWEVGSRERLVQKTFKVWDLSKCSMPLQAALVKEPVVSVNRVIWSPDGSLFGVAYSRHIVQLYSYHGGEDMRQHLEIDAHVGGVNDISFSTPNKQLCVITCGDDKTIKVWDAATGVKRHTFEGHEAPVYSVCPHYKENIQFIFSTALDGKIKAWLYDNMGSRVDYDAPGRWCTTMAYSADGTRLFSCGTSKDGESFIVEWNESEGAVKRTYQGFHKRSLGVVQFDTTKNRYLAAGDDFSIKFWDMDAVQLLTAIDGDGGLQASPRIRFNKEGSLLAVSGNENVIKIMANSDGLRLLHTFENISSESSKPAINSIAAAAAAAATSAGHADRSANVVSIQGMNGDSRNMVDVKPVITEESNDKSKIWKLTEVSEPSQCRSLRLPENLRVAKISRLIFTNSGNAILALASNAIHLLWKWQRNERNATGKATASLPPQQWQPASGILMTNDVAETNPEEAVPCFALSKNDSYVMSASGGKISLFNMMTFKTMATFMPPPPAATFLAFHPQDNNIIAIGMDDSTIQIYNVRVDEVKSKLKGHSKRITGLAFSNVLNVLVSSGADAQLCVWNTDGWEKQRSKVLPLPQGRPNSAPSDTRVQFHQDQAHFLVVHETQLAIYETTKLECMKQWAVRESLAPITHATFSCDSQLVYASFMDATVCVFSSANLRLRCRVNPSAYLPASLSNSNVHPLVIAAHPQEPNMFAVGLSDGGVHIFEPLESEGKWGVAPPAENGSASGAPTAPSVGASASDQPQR
As to the kind of experiment: two-hybrid; TPL on the GAL4 DBD (pGBKT7), PCH1 or phyBC on the GAL4 AD (pGADT7); yeast AH109; growth on TDO with 5 mM 3-AT, 30 °C, 3 days.

Protein sequences, listed by entry. Tags and fused reporters are not part of them. Lines headed by an entry give the natural chain unless they say otherwise; changes in a name come on top.
UniProt P14713: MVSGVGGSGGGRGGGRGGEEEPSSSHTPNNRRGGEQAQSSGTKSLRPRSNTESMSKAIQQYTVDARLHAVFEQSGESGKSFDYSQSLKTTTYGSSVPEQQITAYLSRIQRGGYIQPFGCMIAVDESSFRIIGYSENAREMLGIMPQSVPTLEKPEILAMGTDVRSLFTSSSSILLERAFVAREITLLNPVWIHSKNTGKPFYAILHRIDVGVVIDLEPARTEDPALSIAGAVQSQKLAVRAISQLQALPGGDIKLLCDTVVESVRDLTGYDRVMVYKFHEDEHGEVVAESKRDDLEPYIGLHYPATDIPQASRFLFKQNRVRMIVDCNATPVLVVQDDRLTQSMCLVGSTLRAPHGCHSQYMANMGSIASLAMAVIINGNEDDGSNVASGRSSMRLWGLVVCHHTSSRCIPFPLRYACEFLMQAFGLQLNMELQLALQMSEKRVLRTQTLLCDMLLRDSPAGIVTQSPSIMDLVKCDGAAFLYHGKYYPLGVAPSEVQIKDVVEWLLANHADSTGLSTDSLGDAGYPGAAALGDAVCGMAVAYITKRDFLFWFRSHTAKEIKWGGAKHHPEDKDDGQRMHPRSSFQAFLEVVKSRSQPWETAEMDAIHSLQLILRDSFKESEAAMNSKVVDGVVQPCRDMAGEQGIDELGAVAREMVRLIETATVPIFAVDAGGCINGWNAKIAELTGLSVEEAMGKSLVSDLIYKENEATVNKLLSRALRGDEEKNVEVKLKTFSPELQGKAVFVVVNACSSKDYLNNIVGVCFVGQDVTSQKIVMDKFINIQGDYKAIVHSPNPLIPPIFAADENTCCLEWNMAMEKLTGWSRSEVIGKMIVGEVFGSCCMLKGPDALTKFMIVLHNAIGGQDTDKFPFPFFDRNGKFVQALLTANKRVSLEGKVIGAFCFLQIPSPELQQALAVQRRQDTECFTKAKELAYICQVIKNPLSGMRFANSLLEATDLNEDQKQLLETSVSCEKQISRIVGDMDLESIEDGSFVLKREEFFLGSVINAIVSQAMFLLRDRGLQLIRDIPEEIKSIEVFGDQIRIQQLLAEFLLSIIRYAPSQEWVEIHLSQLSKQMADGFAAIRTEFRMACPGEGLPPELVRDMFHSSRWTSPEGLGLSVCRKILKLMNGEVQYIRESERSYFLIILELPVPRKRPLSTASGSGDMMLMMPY
UniProt Q9FIX7: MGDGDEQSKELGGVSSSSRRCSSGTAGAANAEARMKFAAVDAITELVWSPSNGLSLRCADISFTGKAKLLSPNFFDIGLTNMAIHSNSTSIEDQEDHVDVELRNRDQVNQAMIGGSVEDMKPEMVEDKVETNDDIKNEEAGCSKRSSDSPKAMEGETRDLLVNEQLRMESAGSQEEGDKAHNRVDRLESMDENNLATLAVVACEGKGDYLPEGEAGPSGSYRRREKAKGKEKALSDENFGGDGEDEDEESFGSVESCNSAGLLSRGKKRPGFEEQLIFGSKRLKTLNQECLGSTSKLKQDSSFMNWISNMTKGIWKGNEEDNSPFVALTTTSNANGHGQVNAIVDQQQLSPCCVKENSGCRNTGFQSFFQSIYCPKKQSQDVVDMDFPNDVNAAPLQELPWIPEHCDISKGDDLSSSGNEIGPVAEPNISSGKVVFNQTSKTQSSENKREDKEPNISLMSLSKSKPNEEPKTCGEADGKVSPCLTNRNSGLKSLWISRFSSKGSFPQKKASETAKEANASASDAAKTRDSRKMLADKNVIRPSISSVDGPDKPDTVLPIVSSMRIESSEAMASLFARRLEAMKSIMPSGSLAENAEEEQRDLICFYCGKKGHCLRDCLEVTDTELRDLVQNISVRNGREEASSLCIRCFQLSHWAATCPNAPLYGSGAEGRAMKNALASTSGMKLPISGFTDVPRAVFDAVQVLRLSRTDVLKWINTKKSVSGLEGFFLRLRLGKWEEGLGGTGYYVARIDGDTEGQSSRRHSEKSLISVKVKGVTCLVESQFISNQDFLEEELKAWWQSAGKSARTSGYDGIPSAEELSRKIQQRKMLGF

The target in assay [2] is phyB-GFP (Arabidopsis thaliana) (UniProt P14713). Kind of assay: fluorescence-activated particle sorting of phyB-GFP photobodies with LC-MS/MS; photobodies sorted by green fluorescence (Alexa Fluor 488 anti-GFP antibody) from sonicated nuclei of PHYB-GFP leaves; proteins enriched over the pre-sorted nuclear extract by more than 2σ.
For assay [3], the target named is T2, GST-fused TOPLESS (GST-TPL) (Arabidopsis thaliana) (UniProt Q94AI7).
T2 sequence: T1 sequence
Kind of assay: pull-down; GST or GST fusions incubated with SBP-PCH1, pulled down with glutathione resin; 25 mM HEPES, 150 mM KCl, 1 mM DTT, pH 7.40, 30 min, room temperature, dark; anti-SBP and anti-GST blots; both purified.

The values that follow come from paper PMC10042835, “Phytochrome B photobodies are comprised of phytochrome B and its primary and secondary interacting proteins” (Nature Communications, 2023).

These are yes or no findings as the source states them, for the method shown. Binding can be weak; no strength is given. For part of these data: Where a sequence is shown, tags or fusion partners need not be part of it.

On to “PCH1 fused to the GAL4 transactivation domain (pGADT7-PCH1) (Arabidopsis thaliana)”, for which, in assay [1], the binding entry was “binds”.
Regarding “TANDEM ZINC-FINGER-PLUS3 (TZP) (from UniProt Q9FIX7)”, the binding result in assay [2] is “binds”.
Consider “SBP-fused PCH1 (SBP-PCH1) (Arabidopsis thaliana)”, for which the binding entry in assay [3] is “binds”.
